Data reported in US20090172842A1.
Results are given in words; binding and its absence hold for the method and conditions named. In cells and extracts the contact can be indirect. Some entries that bind do so weakly or less than the wild type.

Amino acid sequences for entries named in this document (tags omitted). A change or cut given only in a name is not applied to a line headed by its entry. Residues count along the entry.
UniProt P69249, residues 58-180: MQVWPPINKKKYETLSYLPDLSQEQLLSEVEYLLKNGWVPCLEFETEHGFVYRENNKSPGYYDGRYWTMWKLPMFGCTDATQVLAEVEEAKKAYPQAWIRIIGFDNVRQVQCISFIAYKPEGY
UniProt P24624: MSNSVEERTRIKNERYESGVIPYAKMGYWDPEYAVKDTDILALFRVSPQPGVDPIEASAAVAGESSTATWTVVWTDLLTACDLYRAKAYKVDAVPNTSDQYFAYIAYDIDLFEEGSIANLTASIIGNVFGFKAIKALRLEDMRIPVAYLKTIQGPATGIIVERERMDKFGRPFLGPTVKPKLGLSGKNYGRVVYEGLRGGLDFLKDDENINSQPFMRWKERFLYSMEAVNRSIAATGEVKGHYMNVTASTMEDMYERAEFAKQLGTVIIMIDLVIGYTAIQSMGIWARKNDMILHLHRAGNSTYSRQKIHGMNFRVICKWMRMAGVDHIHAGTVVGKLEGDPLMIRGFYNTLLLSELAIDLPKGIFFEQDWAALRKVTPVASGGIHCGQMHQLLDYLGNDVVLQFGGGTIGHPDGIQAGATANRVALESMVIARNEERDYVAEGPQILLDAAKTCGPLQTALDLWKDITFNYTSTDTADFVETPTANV

Molecular target: endogenous tobacco RUBISCO small subunit (Nicotiana tabacum (tobacco)) (UniProt P69249)
Assay: Ni-NTA co-purification of SSU with LSU-6His from pTCP104-1 leaves; SDS-PAGE and Native-PAGE immunoblots with anti-His and anti-rbcS antibodies

binding: binds
Substance: Griffithsia monilis RUBISCO large subunit with C-terminal 6-His tag, product of the chloroplast transgene cpGMNrbcL (pTCP104 tobacco) (from UniProt P24624 1-488) (enzyme)
